Substitutions are numbered along the chain they refer to. Results are given in words; binding and its absence hold for the method and conditions named. A result given as binding can be weak or reduced; the word gives no strength. Sequences can lack the tags named with a protein.
Assays:
Assay in all cases: two-hybrid; bacterial two-hybrid in E. coli BTH101; signal quantified by β-galactosidase assay (ONPG, ΔOD420/min/ml) of cultures grown 16 h at 30°C with IPTG
[1] = biological target: T1, ϕC31 IntS454G fused to T18 (Streptomyces phage ϕC31) (UniProt Q9T221)
T1 sequence: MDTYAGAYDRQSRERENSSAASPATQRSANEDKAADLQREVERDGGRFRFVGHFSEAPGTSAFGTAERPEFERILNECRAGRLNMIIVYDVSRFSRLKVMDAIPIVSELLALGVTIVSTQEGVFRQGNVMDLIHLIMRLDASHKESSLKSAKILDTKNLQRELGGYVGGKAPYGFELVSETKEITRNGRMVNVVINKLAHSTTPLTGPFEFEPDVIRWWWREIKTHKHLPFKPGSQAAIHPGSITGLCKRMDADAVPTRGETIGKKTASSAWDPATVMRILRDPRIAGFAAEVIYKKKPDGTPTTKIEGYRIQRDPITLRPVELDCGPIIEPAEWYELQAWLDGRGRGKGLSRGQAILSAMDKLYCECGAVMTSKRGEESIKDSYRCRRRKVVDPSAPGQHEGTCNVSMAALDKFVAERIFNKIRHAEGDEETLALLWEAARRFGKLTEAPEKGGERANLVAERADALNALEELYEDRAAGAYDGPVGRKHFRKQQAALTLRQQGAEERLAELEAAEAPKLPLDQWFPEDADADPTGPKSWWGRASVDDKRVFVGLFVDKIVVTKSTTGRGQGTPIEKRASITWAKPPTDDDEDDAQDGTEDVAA

[2] = biological target: T2, ϕC31 IntI420V fused to T18 (Streptomyces phage ϕC31) (UniProt Q9T221)
T2 sequence: T1 sequence with I420V, G454S

[3] = biological target: T3, ϕC31 IntW526F fused to T18 (Streptomyces phage ϕC31) (UniProt Q9T221)
T3 sequence: T1 sequence with G454S, W526F

[4] = biological target: T4, ϕC31 IntI582L fused to T18 (Streptomyces phage ϕC31) (UniProt Q9T221)
T4 sequence: T1 sequence with G454S, I582L

Measured: binding

T25-ϕC31 gp3 (wild type) fusion protein (Streptomyces phage ϕC31)
binds: [1] | [2] | [3] | [4]

Source: paper PMC5814800
